Reference: patent US20150064287A1, “METHOD FOR TREATING ABNORMAL POLYGLUTAMINE-MEDIATED DISEASES” (NATIONAL TAIWAN NORMAL UNIVERSITY, priority 2013, published 2015)

System: 293 ATXN3/Q75-GFP cells
Assay: ATXN3/Q75 aggregation assay in 293 cells (high-content analysis)
Assay type: cell-based, human
Settings: effective dose = reduced the ATXN3/Q75 aggregation to 86% or lower
Method: The isogenic ATXN3/[…]-75 cell line was employed, which was formed from subjecting the Flp-InTM-293 cells to targeting insertion of the pcDNA5/FRT/TO-ATXN3/[…] and […] recombinant plasmids. These cell lines were grown in medium containing 5 μg/mL blasticidin and 100 μg/mL hygromycin (InvivoGen). In addition, the method for culture in establishment of the human SH-SY5Y derived Flp-In host cell line and the formation of the isogenic ATXN3/[…]-75 cell line was the same. […] Then doxycycline (10 μg/mL, BD) and oxaliplatin (5 μM, Sigma) were added for 6 days.

SMILES	IC50 cytotoxicity/effective dose ratio
COC(=O)C1=CO[C@@H](O)[C@@H]2C(CO)=CC[C@H]12 [genipin]	11600
COC(=O)C1=CO[C@@H](O[C@@H]2O[C@H](CO)[C@@H](O)[C@H](O)[C@H]2O)[C@@H]2C(CO)=CC[C@H]12 [geniposide]	> 2000
